This experiment has as its system mouse with cerulein-induced pancreatitis. In words: Cerulein-induced acute pancreatitis in mouse: amylase and lipase activity in plasma. It is filed as in vivo. The following applies: for inhibition rate of amylase: Example 3, FIG. 3, drug 3.2 mg/kg. The method, then:
Receptor subtypes involved in the onset of pancreatitis were examined with the use of antagonists of 5-HT2A receptor, 5-HT2B receptor, and 5-HT2C receptor. A mouse having acute pancreatitis induced by excessive administration of cerulein was used as an animal model. This model is not affected by food consumption, which is different from CDE pancreatitis, and thus it is possible to obtain constant pathologic features and analyze data more accurately.
An aqueous solution of cerulein (0.05 mg/Kg) was administered to a five-week-old mouse every one hour five times by hypodermic injection. Each 5-HT2 antagonist suspended in a solvent (0.5% methylcellulose in saline) was administered under the dorsal skin 15 minutes before the first administration of cerulein. […] Further, only the solvent was administered to the control group (group administered with cerulein alone) under the dorsal skin. One hour after the final administration, blood was collected, and amylase activity and lipase activity in the plasma were determined.
Effects of various 5-HT2A antagonists on amylase activity and lipase activity in plasma of cerulein-induced pancreatic mice were examined. […] Then the amylase activity and the lipase activity in plasma were determined.
Effects of various 5-HT2 antagonists on amylase activity and lipase activity in plasma of cerulein-induced pancreatic mice were examined. […] Then the amylase activity and the lipase activity in plasma were determined.

Consider `CC[C@@H](CO)NC(=O)[C@@H]1C=C2c3cccc4c3c(cn4C)C[C@H]2N(C)C1` [Methysergide, methysergide], for which the “inhibition rate of amylase” value is listed as “no inhibition”.

As to `O=C(CCCN1CCC2(CC1)C(=O)NCN2c1ccccc1)c1ccc(F)cc1` [spiperone], the “inhibition rate of amylase” value is given as 15%. For the same molecule, under “Example 2, FIG. 2, drug 3.2 mg/Kg”, the “inhibition rate of amylase activity” value is 41%.

The values are drawn from US20090075974A1, “AGENT FOR PROPHYLAXIS AND TREATMENT OF PANCREATITIS” (UMN Pharma Inc., priority 2005, published 2009).
